Experimental data: PMC5438731
These are yes or no findings as the source states them, for the method shown. In cells and extracts the contact can be indirect. Some binding calls cover weakened binding; strength is not graded here.

Chains of the proteins cited; added tags and fusions are not shown.
UniProt P10415: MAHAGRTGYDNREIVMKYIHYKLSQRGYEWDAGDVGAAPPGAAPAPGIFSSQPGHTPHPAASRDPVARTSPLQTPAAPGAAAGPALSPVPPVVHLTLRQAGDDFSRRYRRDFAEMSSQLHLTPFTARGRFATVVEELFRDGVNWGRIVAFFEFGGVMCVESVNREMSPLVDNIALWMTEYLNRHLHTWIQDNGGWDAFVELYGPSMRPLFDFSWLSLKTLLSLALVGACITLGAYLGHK

Target: Beclin1 (human (endogenous in MCF-7)) (UniProt Q14457)
Test: co-IP; endogenous proteins; MCF-7 and MCF-7^TR5 cells lysed in ice-cold RIPA buffer; primary antibody covalently immobilised on protein A/G agarose, 1 h to 3 h at 4°C, washed with TBS five times, Western blotting; for Nur77-Ku80 also MCF-7^TR5 cells with or without Z-LIG (50 μM) for 24 h

binding: binds
Substance: Bcl-2 (from UniProt P10415 1-239)
